Binding data for 1 molecule are collected here from publication PMC8919396.

Protein sequences, listed by entry. Tags and fused reporters are not part of them. Residues count along the entry.
UniProt Q13467, residues 27-585: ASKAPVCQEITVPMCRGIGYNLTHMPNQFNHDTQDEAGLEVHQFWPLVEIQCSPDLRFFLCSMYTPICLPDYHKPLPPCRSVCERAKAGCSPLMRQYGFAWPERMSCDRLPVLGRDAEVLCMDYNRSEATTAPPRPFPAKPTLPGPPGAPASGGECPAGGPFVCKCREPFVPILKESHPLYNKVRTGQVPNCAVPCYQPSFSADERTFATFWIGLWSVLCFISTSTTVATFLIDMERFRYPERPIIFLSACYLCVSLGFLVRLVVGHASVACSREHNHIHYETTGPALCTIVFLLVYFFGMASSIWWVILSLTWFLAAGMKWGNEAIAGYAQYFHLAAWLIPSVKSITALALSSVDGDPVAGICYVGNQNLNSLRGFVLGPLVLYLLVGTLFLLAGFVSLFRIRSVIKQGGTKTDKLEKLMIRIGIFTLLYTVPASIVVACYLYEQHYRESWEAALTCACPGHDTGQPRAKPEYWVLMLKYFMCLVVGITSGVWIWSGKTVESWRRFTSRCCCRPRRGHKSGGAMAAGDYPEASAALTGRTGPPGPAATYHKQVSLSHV

Results are given in words; binding and its absence hold for the method and conditions named. Some binding calls cover weakened binding; strength is not graded here.

This assay addresses Frizzled 5 (FZD5) on endometrial mesenchymal stem-like cells (human (endogenous in eMSC)) (UniProt Q13467). Kind of assay: flow cytometry on cells; Alexa Fluor 488-labelled rhWNT5A on eMSC, 2 h at 4°C in the dark; cells transfected the day before with siCtrl or siFZD5 (relative fluorescent intensity siCtrl 1.03 ± 0.09 fold, siFZD5 0.75 ± 0.03 fold, n = 7); only the binder purified. (In general: Flow cytometry measures light scatter and fluorescence of single cells or particles in a stream.)

B1: Human recombinant WNT5A protein (ligand, UniProt P41221 62-380)
chain: IIGAQPLCSQLAGLSQGQKKLCHLYQDHMQYIGEGAKTGIKECQYQFRHRRWNCSTVDNTSVFGRVMQIGSRETAFTYAVSAAGVVNAMSRACREGELSTCGCSRAARPKDLPRDWLWGGCGDNIDYGYRFAKEFVDARERERIHAKGSYESARILMNLHNNEAGRRTVYNLADVACKCHGVSGSCSLKTCWLQLADFRKVGDALKEKYDSAAAMRLNSRGKLVQVNSRFNSPTTQDLVYIDPSPDYCVRNESTGSLGTQGRLCNKTSEGMDGCELMCCGRGYDQFKTVQTERCHCKFHWCCYVKCKKCTEIVDQFVCK
modifications: Alexa Fluor 488 dye (Alexa Fluor 488 microscale protein labeling kit)
B1: the binding entry was “binds”.
